Test [1] concerns the target Flag::ERGI-3 (C. elegans). The experiment in a line: co-IP.
Test [2] deals with Flag::ERGI-2 (C. elegans). The experiment in a line: co-IP.

No constants are given. Whether binding was seen depends on the method and setting. Binding seen in cells or lysates may run through a third protein. Tags and fused reporters may be left off the sequences shown.

B1: IRE-1::HA (protein, UniProt Q09499 22-967)
chain: ISTPGFRNDHESIGDDEEKTSSTILVSTIDGRLRALDSETGEIKWTLQEEPVLRSPSAVKQGFTFLPNPLDGSLYVLKNSSLKKLPFNIPQLVHASPCKGNDGILYAGSKKDVWFGIDPKTGLKVETLSSASADRICPANQKQTIFLGRTEYRVSMFDEKNRGKTWNATFNDYSAHLLPEVNTWPFKHYASSSHGYILTFDRETGEMRWEQDLKQPVVALYLLRDDGLHKLPFEVMGKETMENVAKNIFTVDQWPTVLGVNAADPQTTSLTNQFFPALFVGESSFGLYAIEALVDHQTITYSPKLLGPPLLEGPAPIALTEMEKEEYLPPRRPIIRNIPPSITHKTSDGEYLLLGYHDRPMMTMATIIPTRYPVPGPHKAIGSTIERPPPQLLGPVEPQKHEDTSFILLLLNNHPIPFYATLVTMFALLLTVIWQCGRQWDQQKSTSRMDSFEIVNNPGESRSAQTSKQSNRGSFGWANRKIEIPEGWMAVGSKLMYSPSDILGTGCEGTVVYRGTFDGREVAVKRVVSEFVKFAHREADLLRESDTHPHVIRYFCMESDSQFRYLALELCIASLNDYVEQKEVQQNVTIALRDIMKQATDGLAHLHASKIVHRDMKPQNVLITMASQRGEMRAVISDFGLCKRVQPGKNSISRGIASGLAGTDGWIAPEVLISASTSYPVDIFSLGCIFYYVLTSGTHPFGKSLHRQANIVNGEYTLNKLADLDDWSLADDLISSMLNVEPLHRLTADAVLNHPFFWTSEKRLAYFSDVSDRVEKEEDNSPVVRRIETDARIVVCGGWREKICDALKEDLRKFRTYKSFSVRDLLRAMRNKKHHYRELPEDVRQSLGDIPDQFLHYFTSRFPRLLLHVYKATEYCSGEAVFKRYYSDDVRARMYPIVEEEERVRKKIKEEMANEVWARAPKPVEQRTPLKLDKRNIKKKSNPNTD
Regarding B1, the binding entry in test [1] and in test [2] was “no binding” throughout.

The values are drawn from article doi:10.64898/2025.12.15.694336.
